# Percent effect of library compounds

Sequences of proteins named here, by UniProt entry; tags and fusion partners are left off. Residues count along the entry.
UniProt A4I591, 1-473: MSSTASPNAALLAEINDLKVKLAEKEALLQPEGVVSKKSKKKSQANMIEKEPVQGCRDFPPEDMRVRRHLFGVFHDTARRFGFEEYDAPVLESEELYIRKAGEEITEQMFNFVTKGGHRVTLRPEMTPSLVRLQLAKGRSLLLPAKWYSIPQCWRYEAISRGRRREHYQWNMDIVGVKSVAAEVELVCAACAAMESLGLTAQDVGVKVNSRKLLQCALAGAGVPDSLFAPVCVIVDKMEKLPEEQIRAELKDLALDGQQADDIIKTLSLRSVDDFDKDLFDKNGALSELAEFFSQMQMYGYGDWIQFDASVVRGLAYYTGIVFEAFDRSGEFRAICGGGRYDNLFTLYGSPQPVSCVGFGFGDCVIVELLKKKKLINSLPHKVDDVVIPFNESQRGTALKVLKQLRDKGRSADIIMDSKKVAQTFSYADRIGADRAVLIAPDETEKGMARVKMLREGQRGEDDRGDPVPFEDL
UniProt P9WFT3, whole entry: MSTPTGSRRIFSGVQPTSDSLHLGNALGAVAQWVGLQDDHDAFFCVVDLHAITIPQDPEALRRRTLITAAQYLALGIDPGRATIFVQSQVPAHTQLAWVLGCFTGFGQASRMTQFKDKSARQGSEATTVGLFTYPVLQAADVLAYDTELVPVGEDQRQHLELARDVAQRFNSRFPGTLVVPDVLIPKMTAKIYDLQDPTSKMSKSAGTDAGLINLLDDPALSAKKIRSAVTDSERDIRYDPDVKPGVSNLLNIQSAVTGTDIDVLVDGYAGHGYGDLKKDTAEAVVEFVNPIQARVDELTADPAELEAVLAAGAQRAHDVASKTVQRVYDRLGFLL
UniProt P9WNZ1, whole entry: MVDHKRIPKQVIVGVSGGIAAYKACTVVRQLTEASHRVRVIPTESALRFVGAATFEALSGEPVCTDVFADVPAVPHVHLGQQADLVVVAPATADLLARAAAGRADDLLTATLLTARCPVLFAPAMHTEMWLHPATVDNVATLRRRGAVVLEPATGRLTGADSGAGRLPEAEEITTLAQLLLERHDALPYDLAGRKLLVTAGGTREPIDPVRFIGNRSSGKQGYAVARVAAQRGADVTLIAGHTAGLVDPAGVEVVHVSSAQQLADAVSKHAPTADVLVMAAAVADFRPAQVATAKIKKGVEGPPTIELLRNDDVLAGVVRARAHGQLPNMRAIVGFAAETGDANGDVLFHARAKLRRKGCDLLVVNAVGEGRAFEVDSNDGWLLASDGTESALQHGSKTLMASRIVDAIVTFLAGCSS

Source: ChEMBL document CHEMBL3988442, “University of Dundee, Small-Polar-MMV Screening Library” (2021).

LiHisRS: 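Histidine-tRNA ligase, Leishmania infantum (UniProt A4I591). Enzyme assay of histidyl-tRNA synthetase; the read-out is not stated. Tested at 30 µM. The record gives no direction; compounds that gave an IC50 in retests scored well above the rest, so higher reads as stronger inhibition. The assay is labelled LdHisRS but filed under L. infantum. About 69,000 compounds were tested under these conditions; 0.6% (about 410) showed 50% or more at least once.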
MtTrpRS: 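Tryptophan-tRNA ligase, Mycobacterium tuberculosis (UniProt P9WFT3). Enzyme assay of tryptophanyl-tRNA synthetase; the read-out is not stated. Concentration: 10 µM. Higher most likely means stronger inhibition; the record gives no direction and few retests gave an IC50. Size under these conditions: about 65,000 compounds, about 64 of them at 50% or above in at least one test.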
CoaBC: 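Coenzyme A biosynthesis protein CoaBC, Mycobacterium tuberculosis (UniProt P9WNZ1). Enzyme assay of CoaBC with a phosphate dye (Biomol Green) read at 650 nm. Concentration: 30 µM. Direction is inferred from only a few compounds that gave an IC50; most scored high, so higher reads as stronger inhibition. Most strong results did not repeat in a second test. About 67,000 compounds were tested under these conditions; 0.06% (about 40) showed 50% or more at least once.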

Each number is a percent effect as filed. The controls that fix the scale are not given in the record; negative values are as filed. The compounds are a random part of those screened. A dash means the value is not listed here; it may have been measured.

compound | LiHisRS | MtTrpRS | CoaBC
Cc1nn(C)cc1CN1CCCCCC1c1ccccc1Cl (stereo unspecified) | 22.47 | 1.174 | 3.008
CCCc1nnc(N2CCC(N3CCCC3)CC2)o1 | -2.222 | 3.558 | 4.38
Cc1nn(C)cc1CN1CCCCCC1c1ccc(Cl)cc1 (stereo unspecified) | 22.47 | -0.000007 | 1.324
COc1cc(C)nc(N2CCN(C(=O)CCc3ccsc3)CC2)n1 | 14.52 | -1.958 | 6.357
O=C(c1cc(C2CC2)[nH]n1)N1CCCN(c2nccs2)CC1 | 16.67 | -3.008 | 6.483
CS(=O)(=O)CCNC1CCCN(Cc2noc(C3CC3)n2)C1 (stereo unspecified) | 6.122 | -6.034 | 2.296
Cc1nnc([C@@]23CCO[C@@H]2CCN(Cc2ccc4c(c2)OCO4)C3)o1 | 0 | - | 3.342
Cc1ccc2[nH]c(CO[C@H]3CN(C(=O)C4CC4)C[C@H]3F)nc2c1 | 4.054 | -2.049 | 5.96
O=C(Cc1ccccc1)N1CCC2(CC1)CN(c1ncccn1)CCO2 | 21 | -2.654 | 4.574
Cc1noc([C@H]2COC[C@H]3CN(C(=O)Cc4cccs4)C[C@H]32)n1 | 17.95 | 1.106 | 1.504
Cc1n[nH]c(C)c1CCC(=O)NC1CCCN(c2ccccc2F)C1 (stereo unspecified) | -9.091 | 12.54 | -0.6329
CC(=O)N1CCCC1c1nnn2cc(-c3ccncc3)ccc12 (stereo unspecified) | 7.965 | 4.064 | -103
COCCNC(=O)NCc1cc(-c2cccs2)n(C2CCCC2)n1 | 10.87 | 4.364 | -0.2421
O=C(N1CCCC1)N1CCCC(c2nccn2Cc2ccncc2)C1 (stereo unspecified) | 11.29 | -5.791 | 5.939
CC(=O)c1ccc(NC(=O)c2ccc3c(c2)C2(CCCCC2)CN3)cc1 | 8 | -2.698 | 2.956
CC(C)c1nc(C2CCCN2Cc2nnc(C3CCC3)o2)no1 (stereo unspecified) | 1.835 | 23.61 | 6.102
O=C(c1ccc(O)c(Cl)c1)N1C[C@@H](CN2CCCCCC2)[C@@H](CO)C1 | 3.125 | -6.063 | 0.5141
COC(=O)[C@H](C)NC(=O)Cc1c(C)nc2cc(=O)[nH]n2c1C | 2.74 | -1.04 | 7.231
O=C(Cn1ccc2c(Cl)cccc21)Nc1nc[nH]n1 | 13.04 | 0.06324 | 2.421
COCCn1ccc(NC(=O)Nc2cccnc2)n1 | -22.86 | -0.5297 | 7.962
CCC(NC(=O)C(C)(C)C)c1ccccc1C (stereo unspecified) | 12.94 | -2.12 | 3.236
CS(=O)(=O)NCCCNc1ccc(C(F)(F)F)cc1C#N | 4.167 | 2.27 | -
Cc1ccoc1C(=O)N1C[C@H]2CCC[C@@]2(COCc2ccncc2)C1 | 28.16 | -2.536 | 7.478
O=C(c1ccco1)N1CC[C@@H]2[C@H]1CCC(=O)N2c1ccccc1 | 9 | -1.895 | 3.585
CS(=O)(=O)N[C@@H]1CN(Cc2ccc3ccccc3c2)C[C@H]1O | 4.027 | -9.051 | 3.196
CCc1ncnc2c1CCN(C(=O)c1ccccn1)CC2 | 17.95 | 0.1383 | 2.256
Cc1noc(C)c1C(=O)N1C[C@@H]2CCCO[C@@H]2[C@H](N(C)C)C1 | 7.965 | 1.992 | 10.74
COc1c(C2CCCN2Cc2nc(C3CC3)no2)c(C)nn1C (stereo unspecified) | 0.8696 | 15.97 | 2.163
COc1cc(F)c(C(=O)NCc2ccon2)c(F)c1 | 11.48 | 0.1575 | -2.558
CC(C)(C)CC(=O)NCC(=O)Nc1ccn(Cc2ccncc2)n1 | 0 | 1.492 | 0.8861
CN(Cc1nnc(C2CC2)n1C)S(=O)(=O)c1ccccc1F | 5.263 | -2.386 | -3.544
O=C(NCC1CCOC1)N1CCN(Cc2ccc3c(c2)OCO3)CC1 (stereo unspecified) | 16.67 | -3.123 | 1.956
COc1ccc(CNC(=O)N2CCc3sccc3C2)cc1O | 20.43 | 4.152 | 6.943
c1ccc(COC[C@H]2CC[C@H]3[C@H](CCN3c3ncccn3)O2)nc1 | 21 | -1.137 | 3.337
CNc1nc2ncc(Cl)cc2cc1C#N | 22.92 | -3.431 | 5.984
Cc1ncncc1C(=O)N1C[C@H]2CC[C@@H]1CN(C(=O)c1ccncc1)C2 | 11.67 | -3.82 | -4.925
Cc1nc(CSCc2ccc(OCC(F)(F)F)nc2)no1 | 11.39 | 0.4182 | 4.183
O=C(CCSc1ccccc1F)NCc1cccnc1 | 18.92 | 1.519 | -10.12
O=C(c1cnccn1)N1C[C@@H]2CCN(c3cccnc3)C[C@@H]2C1 | -2.941 | -5.844 | -0.5076
COCCC(=O)N1CCC2(CCN(Cc3cccc(F)c3)C2)C1 (stereo unspecified) | 3 | 1.744 | -2.349
CCN(Cc1noc(C(C)(C)C)n1)Cc1ccc(C#N)cc1F | 3.39 | -3.864 | 4.141
COc1c(CNC2CCN(C(=O)C3CC3)CC2)c(C(C)C)nn1C | -65.15 | -0.4873 | 2.504
Cc1cc(-c2nnc(SCC(=O)O)n2C(C)c2ccccc2)nn1C (stereo unspecified) | 16.35 | 3.602 | 12.24
COc1cccc(OCCNCc2c(C)nn(C)c2N(C)C)c1 | 42.4 | 1.73 | 2.394
COc1ccc(C(=O)N2CCCS2(=O)=O)cc1OC | 13.79 | -5.781 | -1.305
O=C1CO[C@@H]2CN(Cc3cccs3)C[C@H]2N1Cc1cccnc1 | 9.091 | -3.662 | 5.462
CCCc1nc(CN(CC)C(=O)c2ccc3ncsc3c2)no1 | 11.29 | -1.653 | 1.572
CCCOc1cc(C)ccc1NC(=O)NCCNC(=O)C(C)C | 1.77 | -0.4301 | -1.722
COc1ccc(CN2C[C@@H](CN(C)C)[C@@H](CO)C2)cc1CN1CCCC1 | 9.917 | 0.7819 | 5.368
COC(=O)N1CCCCC1C(=O)N1CCCN(c2ccnc(C)c2)CC1 (stereo unspecified) | 12.4 | 0.2463 | -2.58
COc1ccc2c(c1)OCC(CNC(=O)c1cnc(NC(C)C)nc1)C2 (stereo unspecified) | 10.39 | -4.079 | -1.277
COc1ccc2cc(C(=O)N3CC[C@H](CO)[C@H](O)C3)n(C)c2c1 | 8.333 | -1.701 | -7.143
O=C(c1cccc(Cl)c1F)N1CCOC2(CNCCOC2)C1 (stereo unspecified) | 13.6 | -3.116 | -0.8444
OCC1CCCN1c1cc(NCc2cccnc2)ncn1 (stereo unspecified) | 5.357 | 3.374 | -4.773
COC(=O)Nc1cccc(C(=O)N(C)Cc2cccc(O)c2)c1 | 22.45 | 3.377 | 6.777
Cc1ccc(CN2CCC3(CCN(c4cnn(C)c4)C3=O)C2)s1 (stereo unspecified) | 17.43 | -1.146 | 7.505
CCn1ccnc1CNCC(c1ccc(C)s1)N1CCOCC1 (stereo unspecified) | 2.679 | 0.8894 | 1.587
Cc1cc(C(=O)NC(C)CC(=O)c2cccs2)n(C)n1 (stereo unspecified) | 4.762 | -3.888 | 6.553
CC(C)c1cncnc1-c1cc(F)cc2c1OC(CN)C2 (stereo unspecified) | 19.18 | -5.056 | 12.27
COCc1nn(C)c2c1CCN(Cc1cnn(C)c1)C2 | 11.65 | -2.991 | 4.835
Cc1ccccc1C(=O)N1CCN(c2ccc(-n3cncn3)nn2)CC1 | 5.217 | -3.116 | 5.708
CCS(=O)(=O)N1C[C@H]2CC[C@@]3(N=C(C)N(CC(C)C)C3=O)[C@H]2C1 | 17.65 | -7.654 | 2.03
O=C1CC2(CCN(CCO)CC2)CN1Cc1cc(F)cc(F)c1 | 12.5 | -0.9479 | 10.13
Cc1cnc(NC(=O)c2csc(NC3CCCC3)n2)s1 | 21.35 | -2.508 | -13.54
Cc1nn(CC(C)C)c(N(C)C)c1CNCCCNS(C)(=O)=O | -8.511 | -6.536 | -1.241
Cc1ccccc1CN1C[C@@H](C(=O)N2CCCCO2)C[C@H]2OCC[C@H]21 | 20 | 0.7819 | 5
COc1ccc(C(CNC(=O)c2c(C)noc2C)N(C)C)cc1 (stereo unspecified) | 12.84 | 16.74 | -7.347
CCS(=O)(=O)N1CC[C@]2(C[C@@H](OCC3CC3)CO2)C1 | 22.64 | 1.006 | -6.608
c1cncc(OCCCNC2COc3ccccc3C2)c1 (stereo unspecified) | 4.196 | -4.855 | 0.4938

Once more, the final 8:

- CCS(=O)(=O)N1C[C@H]2CC[C@@]3(N=C(C)N(CC(C)C)C3=O)[C@H]2C1 : LiHisRS: 17.65%; MtTrpRS: -7.654%; CoaBC: 2.03%
- O=C1CC2(CCN(CCO)CC2)CN1Cc1cc(F)cc(F)c1 : LiHisRS: 12.5%; MtTrpRS: -0.9479%; CoaBC: 10.13%
- Cc1cnc(NC(=O)c2csc(NC3CCCC3)n2)s1 : LiHisRS: 21.35%; MtTrpRS: -2.508%; CoaBC: -13.54%
- Cc1nn(CC(C)C)c(N(C)C)c1CNCCCNS(C)(=O)=O : LiHisRS: -8.511%; MtTrpRS: -6.536%; CoaBC: -1.241%
- Cc1ccccc1CN1C[C@@H](C(=O)N2CCCCO2)C[C@H]2OCC[C@H]21 : LiHisRS: 20%; MtTrpRS: 0.7819%; CoaBC: 5%
- COc1ccc(C(CNC(=O)c2c(C)noc2C)N(C)C)cc1 (stereo unspecified) : LiHisRS: 12.84%; MtTrpRS: 16.74%; CoaBC: -7.347%
- CCS(=O)(=O)N1CC[C@]2(C[C@@H](OCC3CC3)CO2)C1 : LiHisRS: 22.64%; MtTrpRS: 1.006%; CoaBC: -6.608%
- c1cncc(OCCCNC2COc3ccccc3C2)c1 (stereo unspecified) : LiHisRS: 4.196%; MtTrpRS: -4.855%; CoaBC: 0.4938%